From paper doi:10.1101/2024.02.12.579870
These are yes or no findings as the source states them, for the method shown. In cells and extracts the contact can be indirect. Some entries that bind do so weakly or less than the wild type.

The chains behind the UniProt entries cited, without tags or fusion partners. Where a name states a change or a piece, a line headed by the entry shows the natural chain unless it says otherwise.
UniProt O43681: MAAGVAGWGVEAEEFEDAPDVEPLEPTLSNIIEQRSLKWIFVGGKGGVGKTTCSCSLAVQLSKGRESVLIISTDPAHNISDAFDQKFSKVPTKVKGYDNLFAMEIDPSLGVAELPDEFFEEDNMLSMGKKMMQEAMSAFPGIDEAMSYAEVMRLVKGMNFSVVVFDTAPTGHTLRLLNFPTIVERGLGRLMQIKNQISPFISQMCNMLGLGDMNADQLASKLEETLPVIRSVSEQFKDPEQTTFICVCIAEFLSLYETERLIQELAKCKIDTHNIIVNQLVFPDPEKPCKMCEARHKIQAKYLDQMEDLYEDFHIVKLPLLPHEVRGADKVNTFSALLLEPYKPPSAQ
UniProt Q9HD20: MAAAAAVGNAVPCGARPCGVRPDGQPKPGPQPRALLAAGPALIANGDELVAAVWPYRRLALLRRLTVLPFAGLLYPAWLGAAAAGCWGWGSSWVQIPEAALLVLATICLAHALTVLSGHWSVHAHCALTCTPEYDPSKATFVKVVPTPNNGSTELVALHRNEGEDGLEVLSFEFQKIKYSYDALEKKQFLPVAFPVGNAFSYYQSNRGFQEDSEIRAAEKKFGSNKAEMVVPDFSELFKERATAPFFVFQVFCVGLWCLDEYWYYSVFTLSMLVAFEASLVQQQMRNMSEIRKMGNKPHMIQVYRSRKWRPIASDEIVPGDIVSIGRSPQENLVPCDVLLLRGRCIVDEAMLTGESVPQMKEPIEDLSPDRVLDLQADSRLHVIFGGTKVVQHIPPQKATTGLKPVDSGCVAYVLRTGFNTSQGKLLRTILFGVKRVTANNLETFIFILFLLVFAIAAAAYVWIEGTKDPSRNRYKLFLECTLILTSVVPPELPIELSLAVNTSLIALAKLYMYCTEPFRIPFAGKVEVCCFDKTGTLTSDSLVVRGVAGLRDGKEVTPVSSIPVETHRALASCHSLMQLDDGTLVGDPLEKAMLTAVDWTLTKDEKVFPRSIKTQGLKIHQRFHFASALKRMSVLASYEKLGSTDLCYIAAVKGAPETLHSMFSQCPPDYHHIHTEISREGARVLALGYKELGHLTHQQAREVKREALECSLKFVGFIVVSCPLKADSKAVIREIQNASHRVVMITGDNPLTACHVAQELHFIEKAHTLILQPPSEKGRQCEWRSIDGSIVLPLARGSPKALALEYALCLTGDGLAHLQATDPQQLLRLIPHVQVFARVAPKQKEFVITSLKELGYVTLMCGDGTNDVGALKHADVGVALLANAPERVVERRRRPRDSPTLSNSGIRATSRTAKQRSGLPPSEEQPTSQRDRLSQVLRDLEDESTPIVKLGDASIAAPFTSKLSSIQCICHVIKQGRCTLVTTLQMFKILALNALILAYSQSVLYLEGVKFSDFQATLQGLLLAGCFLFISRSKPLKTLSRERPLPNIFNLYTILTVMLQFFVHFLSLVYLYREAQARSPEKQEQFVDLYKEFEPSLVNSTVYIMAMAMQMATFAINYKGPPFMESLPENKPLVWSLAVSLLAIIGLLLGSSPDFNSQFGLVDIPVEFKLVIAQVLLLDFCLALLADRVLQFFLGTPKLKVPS

Molecular target: GET3 (human (endogenous in HEK293FT)) (UniProt O43681)
Experiment: co-IP

binding	Substance
binds	ATP13A1 (wild type, expressed from a plasmid) (from UniProt Q9HD20 1-1204) (enzyme)
binds	ATP13A1(D533N) (from UniProt Q9HD20 1-1204) (enzyme)
